For at least one compound, name, drawing or mass did not settle the structure.
What was measured:
[1] = system: acute myeloid leukemia cell line, HL60; assay: Apoptosis induction by Annexin V PI double staining, HL60; assay type: cell-based, human; conditions: vardenafil 5 μM, EGCG 5 μM, 96 hours
Protocol: A propidium iodide (PI) staining solution was prepared by suspending PI (Sigma Corporation) in PBS at a concentration of 50 μg/mL and was used in investigation of the anti-cancer activity of a combination of EGCG and vardenafil by Annexin V PI double staining. The PBS used was prepared by dissolving 8.0 g of NaCl, 0.2 g of KCl, 1.15 g of Na2HPO4, and 0.2 g of KH2PO4 in 1 L of ultrapure water, followed by autoclave sterilization. The Annexin V Binding Buffer used was prepared with 10 mM HEPES, 140 mM NaCl, and 2.5 mM CaCl2 (Wako Pure Chemical Industries, Ltd.) to be pH 7.4, followed by filter sterilization.
Cell lines, U266 and HL60, adjusted to be 5×10^4 cells/mL (U266) and 1×10^4 cells/mL (HL60), respectively, in an RPMI 1640 medium supplemented with 1% FCS were seeded in a 96-well plate. […]
The plate was returned to the incubator immediately after the addition of EGCG, followed by culturing for 96 hours. […] The supernatant was removed, and the cells were suspended in an Annexin V Binding uffer, and the number of the cells was counted with a hemocytometer. […] Subsequently, 400 μL of an Annexin V Binding Buffer was added thereto from above, and the cells were counted with a flow cytometer, FACS Caliber (Becton, Dickinson and Company). After compensation, the Annexin V Alexa Fluor 488 Conjugate was measured at FL 1, and the cells deemed to be positive were determined as apoptotic cells. […]

[2] = system: human prostate cancer cell line, PC3; assay: Trypan blue cell viability and viable cell count, PC3; assay type: cell-based; conditions: vardenafil 5 μM, EGCG 10 μM added after 2 hours, 96 hours
Protocol: A human prostate cancer cell line, PC3, was subcultured in an RPMI 1640 medium supplemented with 10% fetal calf serum (FCS) at 37° C. under vapor-saturated 5% CO2 conditions. The cells were cultured in the logarithmic growth phase. The RPMI 1640 medium used in the culture was prepared by suspending 10.4 g of an RPMI 1640 medium, 2.38 g of HEPES, 0.5 vial of Penicillin G Potassium for Injection 200000 Unit, 0.1 vial of Streptomycin Sulfate for Injection 1 g, and 2.0 g of NaHCO3 in 1 L of ultrapure water, followed by filter sterilization. Subsequently, the RPMI 1640 medium was supplemented with fetal calf serum (FCS) and was used in cell culture. A trypan blue staining solution was prepared by suspending trypan blue in PBS at a concentration of 1% and was used in investigation of the anti-cancer activity of a combination of EGCG and vardenafil by trypan blue assay. The PBS used was prepared by dissolving 8.0 g of NaCl, 0.2 g of KCl, 1.15 g of Na2HPO4, and 0.2 g of KH2PO4 in 1 L of ultrapure water, followed by autoclave sterilization. […] After 10 minutes, the number of the cells was counted with a hemocytometer. Unstained cells were deemed as viable cells, and the cell viability was determined as a ratio of the number of unstained cells in trypan blue staining to the total number of cells. […]

CCCc1nc(C)c2c(=O)[nH]c(-c3cc(S(=O)(=O)N4CCN(CC)CC4)ccc3OCC)nn12 [vardenafil]
apoptosis-inducing activity (apoptotic cell ratio) [1]: any cytotoxicity was not observed | cell viability (cell-killing activity) [2]: any cytotoxicity was not observed
